This note sets out measurements from doi:10.1101/2022.09.03.506457 (bioRxiv, 2022).

No constants are given. Whether binding was seen depends on the method and setting.

Assay [1] concerns the target Methanocaldococcus jannaschii fumarate hydratase β-subunit (Methanocaldococcus jannaschii) (UniProt Q58034). The assay is described as follows: SEC.
For assay [2] the target is unchanged. The assay is described as follows: crystal structure.
In assay [3] the target is Selenomethionine incorporated Methanocaldococcus jannaschii fumarate hydratase β-subunit (of Se-MjFHαβ) (Methanocaldococcus jannaschii) (UniProt Q58034). Briefly: crystal structure.

B1: Methanocaldococcus jannaschii fumarate hydratase β-subunit (enzyme)
chain: MEYTFNKLTKKDVKKLKVGDIVYLNGKIYTARDEAHLKIIEMLKSNEKLPFDLNESIIYHAGPIMKKVNDSWVCVSIGPTTSARMNDVEEEFIKLTNISAIVGKGGMKKELLKTFEDYGVVYLAAPGGCAALLANSVKRVDNVYFLDELGMPEAVWELEVNNFGPLIVAMDSHGNSIYEEVNKKVYEKLNELIGL
As for B1, the binding entry in assay [1] and in assay [2] was “no binding” throughout.

B2: Selenomethionine incorporated Methanocaldococcus jannaschii fumarate hydratase β-subunit (of Se-MjFHαβ) (enzyme, UniProt Q58034 1-195)
chain: B1 chain
modifications: selenomethionine incorporated (eleven selenium atoms per functional dimer)
On to B2, for which the binding result in assay [3] is “no binding”.
